We go through 65 molecules from PubChem BioAssay AID493014 (National Center for Advancing Translational Sciences (NCATS), 2011).

Where “and” joins values, the source holds several entries; their conditions need not be identical. Equal entries are not always repeated. Some of the results follow. Further columns of the screen follow, without active or inactive calls. The list favours compounds with an active or inconclusive main result. The note in brackets gives the kind of curve behind each potency; many fits are weak.

This test can be described thus: qHTS Assay to Find Inhibitors of Chronic Active B-Cell Receptor Signaling. The settings on record: ABC-DLBCL IkBa-CBG/CBR reporter, luminescence ratio (green luciferase fused to IkBa over red control in TMD8 lymphoma cells), 4 h. The procedure, abridged: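 Doxycycline induced both beetle luciferases in TMD8 lymphoma cells; IKK-driven degradation limits the IkappaBalpha-fused green signal, while red luminescence normalises for cell number and nonspecific effects. Compounds tested up to 46 uM, 4 hrs.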
(qHTS replaces the single test concentration by a dilution series.)

Where [1] appears, read: measured here: CBR red luminescence, cell number.
Where [2] appears, read: measured here: IkBa-CBG green luminescence.

The term AC50 denotes the midpoint of the concentration-response curve, whichever way the signal moves. Regarding `COc1cccc(N=c2oc3cc(O)ccc3cc2C(=O)NCC2CCCO2)c1` (stereo not given), under setting [1], the AC50 was 0.794 µM [falling, full curve].
Same read-out and setting: for `O=C(c1ccccc1)N1CCN(C2c3cccc4cccc(c34)C2NS(=O)(=O)c2ccccc2)CC1` (stereo not given) the value was 0.708 µM [falling, partial curve, poor fit]; for `COc1ccccc1NS(=O)(=O)c1cc(NC(=O)c2ccc(Cl)nc2)ccc1Cl`, 23.1 µM [falling, single point].
In the case of `Clc1ccc(-c2cc(CN3CCOCC3)no2)cc1`, the AC50 under setting [1] was 14.1 µM [falling, single point].
Same read-out and setting: to `Cc1cc(C)c(NS(=O)(=O)c2ccc3c(c2)NC(=O)CC(=O)N3)c(C)c1` belongs 23.1 µM [rising, single point]; to `O=C(O)c1cccc(Cl)n1`, 35.5 µM [rising, partial curve, poor fit]; to `COc1ccc(NC(=O)COC(=O)c2cc([N+](=O)[O-])ccc2N2CCOCC2)cc1`, 6.31 µM [rising, single point].
Same read-out and setting: to `COc1cc(CN2CCN(S(=O)(=O)c3ccc(F)cc3)CC2)cc(OC)c1OC` belongs 35.5 µM [rising, partial curve, poor fit]; to `CN(CC(=O)Nc1ccc(N2CCOCC2)cc1)Cc1c(O)ccc2ccccc12`, 6.31 µM [falling, partial curve, poor fit]; to `O=C(Nc1cc(C(F)(F)F)ccc1N1CCOCC1)c1c(F)c(F)c(F)c(F)c1F`, 0.731 µM [falling, partial curve, poor fit].
For the molecule `CC(C)NC(=O)c1cc(-c2cccs2)on1`, the AC50 under setting [1] is 14.6 µM [falling, partial curve, poor fit].
Same read-out and setting: to `Cc1cc(C)n2nc(N)c(N=Nc3ccccc3)c2n1` belongs 11.2 µM [falling, partial curve, poor fit].
On the same count and under the same terms, to `Cc1ccc2nc(SCC(=O)NC(=O)NCc3ccco3)[nH]c2c1` belongs 29.1 µM [falling, single point]; to `CN(CC(=O)Nc1ccccc1F)Cc1cccs1`, 4.47 µM [rising, full curve].
The same measure, in the same setting: to `COc1ccc(CC(=O)N2CCc3cc(OC)c(OC)cc3C2)cc1` belongs 35.5 µM [falling, single point].
For the molecule `O=C(Nc1ncc2c(n1)CC(c1ccccc1)CC2=O)c1ccco1` (stereo not given), under setting [1], the AC50 was 3.26 µM [rising, partial curve, poor fit].
Still for that read-out and setting: for `COc1ccc(Cl)cc1NC(=S)N1CCN(C(=O)c2ccco2)CC1` the value was 11.2 µM [rising, partial curve, poor fit].
On to `CC(=O)N(C1CC(C)C(C#N)(C#N)C1(C#N)C#N)N(C)C` (stereo not given), for which the AC50 under setting [1] was 12.6 µM [falling, partial curve, poor fit].
For `CN(C)CCN(C)Cc1c2ccccc2c(CN(C)CCN(C)C)c2ccccc12`, the AC50 under setting [1] was 15.8 µM [falling, single point].
On the same count and under the same terms, for `NS(=O)(=O)c1ccc(N2N=C(c3ccccc3)CC2c2ccccc2Cl)cc1` (stereo not given) the value was 29.1 µM [falling, single point]; for `C/C(=N\NC(=O)C1CC1)c1ccc(Cl)c(Cl)c1`, 2.91 µM [rising, partial curve, poor fit].
The same measure, in the same setting: to `O=C(CCl)Oc1ccc2occ(C(=O)c3cccs3)c2c1` belongs 29.1 µM [falling, single point]; to `Cc1csc(SCC(=O)Nc2ccc(Cl)cn2)n1`, 14.1 µM [falling, single point].
On the same count and under the same terms, for `O=C(NCCc1ccccc1)c1n[nH]c2ccccc12` the value was 3.16 µM [falling, partial curve].
Turning to `CC(OC(=O)Cc1ccccc1[N+](=O)[O-])C(=O)Nc1ccc(Cl)cn1` (stereo not given), the AC50 under setting [1] is 25.9 µM [falling, single point].
For the molecule `CCNC(=S)NC(=NCc1cccnc1)Nc1nc(C)cc(C)n1`, the AC50 under setting [1] is 15.8 µM [rising, single point].
Same read-out and setting: for `O=C(Nc1nc2ccc(Br)cc2s1)c1ccco1` the value was 11.2 µM [falling, partial curve]; for `Cc1cc(C)c2c(CC(=O)NC(C)C)coc2c1`, 35.5 µM [rising, single point].
The same measure, in the same setting: to `O=C(CSc1nnnn1-c1ccc(O)cc1)c1ccc(F)cc1` belongs 0.447 µM [falling, full curve, poor fit].
Same read-out and setting: to `Cc1[nH]nc2c1[C@@H](c1ccccc1[N+](=O)[O-])C(C#N)=C(N)O2` belongs 15.8 µM [falling, single point].
Take `COc1ccc(/C=N/Nc2nc(-c3ccc(Cl)cc3)cc(C(F)(F)F)n2)cc1OC`: the AC50 under setting [2] is 23.1 µM [rising, partial curve, poor fit].
With `CC1=NN(c2ccccc2)C(=O)/C1=C\c1ccc(Oc2ccc([N+](=O)[O-])cc2[N+](=O)[O-])cc1`, the AC50 under setting [1] was 16.4 µM [falling, partial curve].
For `CC1CCN(c2nc3ccccc3nc2C(C#N)C(=O)NC2CCCCC2)CC1` (stereo not given), the AC50 under setting [1] is 4.11 µM [falling, partial curve, poor fit].
For `Cc1ccc(S(=O)(=O)Nc2ccc3c(c2)nc(CCN2CCOCC2)n3C)cc1`, under setting [1], the AC50 is 22.4 µM [falling, single point].
Still for that read-out and setting: for `c1ccc(-c2nc(-c3ccccn3)no2)cc1` the value was 8.2 µM [falling, partial curve]; for `O=C(NCc1ccco1)Nc1ccc(OC(F)(F)F)cc1`, 35.5 µM [falling, single point].
The same measure, in the same setting: for `CC(=O)NC(CC(=O)NC1CCCCC1)c1ccccc1` (stereo not given) the value was 0.58 µM [rising, full curve, poor fit]; for `CCCCOc1ccc(CSC2=NCCN2)cc1[N+](=O)[O-]`, 18.4 µM [falling, partial curve].
Take `COc1ccc(Nc2nc(-c3ccccc3F)nc3ccccc23)cc1OC`: under setting [1], the AC50 was 7.94 µM [falling, partial curve] and 7.08 µM [falling, partial curve, poor fit].
Same read-out and setting: to `Cc1ccc(OC(=O)c2cc3ccccc3o2)cc1` belongs 0.411 µM [falling, partial curve, poor fit]; to `O=C1CSC(=S)N1N1C(=O)c2cccc([N+](=O)[O-])c2C1=O`, 0.794 µM [rising, partial curve]; to `Cc1cc(SCC(=O)c2ccccc2)nc(=O)[nH]1`, 7.08 µM [falling, partial curve].
`O=C(Cc1ccc(Cl)cc1)Nc1ccc(-c2nnc(-c3ccco3)o2)cc1`: under setting [1], the AC50 is 7.08 µM [rising, partial curve, poor fit].
On the same count and under the same terms, for `Cc1ccccc1Nc1nnc(SCC2CCCCO2)s1` (stereo not given) the value was 32.6 µM [falling, single point].
On the same count and under the same terms, for `O=C(COC(=O)CN1C(=O)C(=O)c2ccccc21)OCN1C(=O)c2ccccc2C1=O` the value was 29.1 µM [rising, single point]; for `CN1CCN(C(=O)c2ccc3c(=O)n(-c4ccc(F)cc4)c(=S)[nH]c3c2)CC1`, 12.6 µM [falling, partial curve, poor fit].
Turning to `O=C(CSc1nnc(-c2ccccc2)c(-c2ccccc2)n1)NCc1ccco1`, the AC50 under setting [2] was 18.4 µM [rising, partial curve, poor fit].
Consider `CCOc1cc(N2CCOCC2)c(OCC)cc1NC(=O)CN1CCCC(C)C1` (stereo not given), for which, under setting [1], the AC50 is 6.51 µM [rising, single point].
On the same count and under the same terms, to `CSc1ccc(/C=C/C(=O)Nc2ccccc2)cc1` belongs 1.41 µM [falling, partial curve].
On the same count and under the same terms, to `CCOC(=O)c1ccc(N/C=C/C(=O)c2ccc(OC)cc2)cc1` belongs 0.316 µM [falling, full curve].
Same read-out and setting: to `N#Cc1cnc(NOCc2ccc(Cl)cc2)nc1` belongs 15.8 µM [rising, partial curve, poor fit]; to `COCCNC(=O)C(c1ccc(C)o1)N(C(=O)c1snc(C(N)=O)c1N)c1cccc(C)c1` (stereo not given), 22.4 µM [rising, single point].
On to `COc1ccc(/C=C/C(=O)OCC(=O)Nc2ccc(Cl)c(S(=O)(=O)N(C)C)c2)cc1OC`, for which the AC50 under setting [1] was 29.1 µM [falling, single point].
On the same count and under the same terms, to `O=c1cc(O)c2sc3nc(-c4ccccc4)cc(C(F)(F)F)c3c2[nH]1` belongs 5.8 µM [falling, full curve]; to `OC(CN1CCN(c2ccc(F)cc2)CC1)c1ccc(Cl)cc1` (stereo not given), 1.58 µM [rising, partial curve].
Regarding `Cc1cc(C(=O)N/N=C/c2ccncc2)c(C)o1`, the AC50 under setting [1] was 11.2 µM [falling, partial curve].
With `Cc1ccc(CNC(=O)c2ccc(Cn3cc(-c4ccc(C)cc4)nc3-c3ccncc3)cc2)cc1`, under setting [1], the AC50 was 35.5 µM [falling, single point].
On to `COc1ccc(C(=O)Nc2ccc(-c3cn4ccsc4n3)cc2)cc1S(=O)(=O)N1CCOCC1`, for which the AC50 under setting [1] is 15.8 µM [rising, partial curve, poor fit].
The same measure, in the same setting: for `COC(=O)c1ccc(NC(=S)NCCc2ccccc2C)cc1` the value was 5.8 µM [falling, partial curve]; for `Cc1cccn2c(=O)c(C(=O)NC3CC(C)CC(C)(C)C3)c(O)nc12` (stereo not given), 3.66 µM [rising, full curve, poor fit]; for `O=C(Nc1ccon1)Nc1cc(Cl)ccc1Cl`, 22.4 µM [rising, partial curve, poor fit].
Same read-out and setting: for `Cc1ccc2nc(-c3ccccc3)oc(=O)c2c1` the value was 1.78 µM [falling, full curve]; for `Cc1ccc2cc(C#N)c(N3CCCN(C(=O)c4cnccn4)CC3)nc2c1`, 11.2 µM [rising, partial curve, poor fit].
Turning to `OC1CCN(c2c3c(nc4cc(-c5ccc(Cl)cc5)nn24)CCC3)CC1`, the AC50 under setting [1] is 5.8 µM [rising, partial curve].
As for `N#CCCn1c(SCC(=O)c2c[nH]c3ccccc23)nc2ccccc21`, the AC50 under setting [1] was 2.82 µM [falling, full curve, poor fit].
